Results on 37 substances are retold here after patent US11230581B2, “Peptides and combination of peptides for use in immunotherapy against ovarian cancer and other cancers” (Immatics Biotechnologies GmbH, priority 2015, dated 2022).

In the series the test system is additional tumor types. The series is described as follows: LC-MS detection and over-presentation of the peptides on additional tumor types, cell lines and primary cultures. The arrangement: species or system human. Conditions: for Additional organs/cancerous diseases: additional tumor types with over-presentation on more than 5% of the measured tumor samples, or presentation on more than 5% with ratio of geometric means tumor vs normal tissues larger than 3; for Other relevant organs/ cancerous diseases: Table 4A: additional tumor types on which the peptide was found, over-presented on more than 5% of measured tumor samples, or presented on more than 5% with ratio of geometric means tumor vs normal tissues larger than 3.

Turning to “326 (FLPEALDFV; listed as Homo sapiens) [compound 326]”, the Additional organs/cancerous diseases entry is “CLL, AML, NHL”.

Consider “329 (FLVTLNNVEV; listed as Homo sapiens) [compound 329]”, for which the “Other relevant organs/ cancerous diseases” value is “Melanoma”.

As to “330 (QLALKVEGV; listed as Homo sapiens) [compound 330]”, the “Other relevant organs/ cancerous diseases” value was “Esophageal Cancer” and the Additional organs/cancerous diseases entry is recorded as “CLL, Urinary Bladder Cancer, AML, NHL, HNSCC”.

For “335 (YSLSSVVTV; listed as Homo sapiens) [compound 335]”, the “Other relevant organs/ cancerous diseases” value is “NSCLC, GC, PC, BrCa, Gallbladder Cancer, Bile Duct Cancer” and the Additional organs/cancerous diseases result was “HNSCC”.

For “336 (ILLTAIVQV; listed as Homo sapiens) [compound 336]”, the “Other relevant organs/ cancerous diseases” value is given as “BrCa, Esophageal Cancer” and the Additional organs/cancerous diseases entry is “Melanoma”.

Turning to “337 (HLLSELEAAPYL; listed as Homo sapiens) [compound 337]”, the Additional organs/cancerous diseases result was “CLL”.

As to “340 (ALLSMTFPL; listed as Homo sapiens) [compound 340]”, the “Other relevant organs/ cancerous diseases” value is “Brain Cancer, HCC, BrCa” and the Additional organs/cancerous diseases result was “SCLC, AML”.

Take “344 (YLQDQHLLLTV; listed as Homo sapiens) [compound 344]”: the “Other relevant organs/ cancerous diseases” value is on record as “SCLC, Melanoma”.

With “347 (SLFKHDPAAWEA; listed as Homo sapiens) [compound 347]”, the “Other relevant organs/ cancerous diseases” value was “NSCLC, HCC, Esophageal Cancer, Urinary bladder Cancer” and the Additional organs/cancerous diseases result is on record as “Uterine Cancer, HNSCC”.

Regarding “349 (SLTEYLQNV; listed as Homo sapiens) [compound 349]”, the “Other relevant organs/ cancerous diseases” value is recorded as “Colon, Rectum, HCC”.

For the substance “350 (ALLDVTHSELTV; listed as Homo sapiens) [compound 350]”, the Additional organs/cancerous diseases result is listed as “BRCA, HNSCC”.

On to “354 (LILEGVDTV; listed as Homo sapiens) [compound 354]”, for which the “Other relevant organs/ cancerous diseases” value was “Esophageal Cancer” and the Additional organs/cancerous diseases result is “BRCA, Urinary Bladder Cancer, Uterine Cancer, NHL”.

In the case of “355 (SIQQSIERLLV; listed as Homo sapiens) [compound 355]”, the “Other relevant organs/ cancerous diseases” value is given as “NSCLC, CRC, HCC, Leukemia, Melanoma, Esophageal Cancer”.

“361 (ALYELEGTTV; listed as Homo sapiens) [compound 361]”: the “Other relevant organs/ cancerous diseases” value is recorded as “Esophageal Cancer”; the Additional organs/cancerous diseases result was “NSCLC, SCLC, CLL, BRCA, Urinary Bladder Cancer, Uterine Cancer, Gallbladder Cancer and Bile Duct Cancer, HNSCC”.

“362 (TLYGLSVLL; listed as Homo sapiens) [compound 362]”: the “Other relevant organs/ cancerous diseases” value is “BrCa” and the Additional organs/cancerous diseases entry is reported as “AML”.

On to “364 (LLQNEQFEL; listed as Homo sapiens) [compound 364]”, for which the “Other relevant organs/ cancerous diseases” value was “RCC”; the Additional organs/cancerous diseases entry was “Urinary Bladder Cancer, Uterine Cancer, Gallbladder Cancer and Bile Duct Cancer”.

On to “365 (YVIDQGETDVYV; listed as Homo sapiens) [compound 365]”, for which the “Other relevant organs/ cancerous diseases” value is “Leukemia, Melanoma” and the Additional organs/cancerous diseases entry was “CLL, Urinary Bladder Cancer, NHL”.

With “366 (RLLDMGETDLML; listed as Homo sapiens) [compound 366]”, the “Other relevant organs/ cancerous diseases” value is recorded as “SCLC, Leukemia, Melanoma” and the Additional organs/cancerous diseases result is on record as “CLL, Urinary Bladder Cancer, AML, NHL”.

With “367 (SLQNHNHQL; listed as Homo sapiens) [compound 367]”, the “Other relevant organs/ cancerous diseases” value was “HCC, Urinary bladder Cancer” and the Additional organs/cancerous diseases entry is given as “NSCLC, CRC, Melanoma, Esophageal Cancer, AML, NHL, HNSCC”.

With “369 (GLFPEHLIDV; listed as Homo sapiens) [compound 369]”, the “Other relevant organs/ cancerous diseases” value is “HCC”.

With “374 (FLLQQHLISA; listed as Homo sapiens) [compound 374]”, the “Other relevant organs/ cancerous diseases” value is recorded as “Leukemia” and the Additional organs/cancerous diseases result was “CLL”.

In the case of “376 (AMFESSQNVLL; listed as Homo sapiens) [compound 376]”, the “Other relevant organs/ cancerous diseases” value is recorded as “Colon, Rectum” and the Additional organs/cancerous diseases result is “CLL”.

As for “378 (ALGYFVPYV; listed as Homo sapiens) [compound 378]”, the “Other relevant organs/ cancerous diseases” value was “HCC”.

For “380 (TLIEDEIATI; listed as Homo sapiens) [compound 380]”, the Additional organs/cancerous diseases result is “SCLC, Melanoma, Uterine Cancer, Gallbladder Cancer and Bile Duct Cancer, AML, HNSCC”.

Consider “381 (FIDEAYVEV; listed as Homo sapiens) [compound 381]”, for which the “Other relevant organs/ cancerous diseases” value is given as “Leukemia” and the Additional organs/cancerous diseases entry is recorded as “GC, CLL, Melanoma, NHL”.

With “383 (ALLELENSVTL; listed as Homo sapiens) [compound 383]”, the “Other relevant organs/ cancerous diseases” value was “HCC”.

“387 (ALFQATAEV; listed as Homo sapiens) [compound 387]”: the “Other relevant organs/ cancerous diseases” value is reported as “HCC, Esophageal Cancer”; the Additional organs/cancerous diseases result is “SCLC, Melanoma, Urinary Bladder Cancer, Uterine Cancer, Gallbladder Cancer and Bile Duct Cancer, AML, NHL, HNSCC”.

For “388 (SLTIDGIRYV; listed as Homo sapiens) [compound 388]”, the “Other relevant organs/ cancerous diseases” value is “SCLC, Melanoma” and the Additional organs/cancerous diseases result was “Brain Cancer”.

For “389 (LLADVTHLL; listed as Homo sapiens) [compound 389]”, the “Other relevant organs/ cancerous diseases” value is “Brain Cancer, Endometrium” and the Additional organs/cancerous diseases result is recorded as “Melanoma, AML”.

Take “391 (YVYPQRLNFV; listed as Homo sapiens) [compound 391]”: the “Other relevant organs/ cancerous diseases” value is recorded as “Leukemia, Melanoma”.

Regarding “393 (GLLDTQTSQVLTA; listed as Homo sapiens) [compound 393]”, the “Other relevant organs/ cancerous diseases” value is given as “HCC, BrCa, Esophageal Cancer, Urinary bladder Cancer”; the Additional organs/cancerous diseases entry is “CRC, Gallbladder Cancer and Bile Duct Cancer, HNSCC”.

With “400 (SLLTEQDLWTV; listed as Homo sapiens) [compound 400]”, the “Other relevant organs/ cancerous diseases” value is given as “Leukemia” and the Additional organs/cancerous diseases entry was “CLL”.

Consider “405 (ALYDVFLEV; listed as Homo sapiens) [compound 405]”, for which the “Other relevant organs/ cancerous diseases” value is “PC, Esophageal Cancer”.

As to “407 (YLMDLINFL; listed as Homo sapiens) [compound 407]”, the “Other relevant organs/ cancerous diseases” value was “PC, Prostate” and the Additional organs/cancerous diseases entry was “AML”.

As for “409 (LLDAMNYHL; listed as Homo sapiens) [compound 409]”, the “Other relevant organs/ cancerous diseases” value was “HCC, Leukemia” and the Additional organs/cancerous diseases entry was “CLL, NHL”.

For the substance “412 (YLDDLNEGVYI; listed as Homo sapiens) [compound 412]”, the “Other relevant organs/ cancerous diseases” value was “Leukemia, Melanoma” and the Additional organs/cancerous diseases result is on record as “BRCA”.

“416 (VLSDIIQNLSV; listed as Homo sapiens) [compound 416]”: the Additional organs/cancerous diseases result was “CLL, NHL”.
